Measurements reported in PubChem BioAssay AID1259405 (NCATS, 2018).

- Screen: 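Mouse-designed siRNAs used to find CHO productivity engineering targets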 (primary screen)
- Cells: Chinese hamster CHO-K1 ovary cells with stable secreted eGFP expression
- Reagent: single siRNA against mouse genes, 0.8 pmol siRNA per well (2 µl of 400 nM stock)
- Duration: 3 days
- Read-out: 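Percent of the per-plate non-targeting control median for intracellular GFP per well by laser scanning cytometry and for cell viability by ATP luminescence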
- Reading the numbers: GFP, % of control: higher = more GFP per well, higher productivity; viability (ATP), % of control: higher = more viable cells (more ATP)
- Active means: 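Called active when intracellular GFP, relative to negative control, is at or above 120%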
This is one part, drawn at random, of about 50,000 reagents. Over the whole deposit, about 4,000 (8%) got an active call. 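Mouse siRNA library applied to hamster cells; one well for each siRNA.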 The numbers tell different reagents against one gene apart.

Thsd1 #1 showed GFP, % of control 79.5; viability (ATP), % of control 86.1; inactive. With knock-down of Thsd1 #2, the record shows GFP, % of control 107; viability (ATP), % of control 93.5; inactive. For Thsd1 #3 the deposit lists GFP, % of control 84.5; viability (ATP), % of control 87.3; inactive. Against 9130019P16Rik #1, the entry reads GFP, % of control 65.9; viability (ATP), % of control 77.8; inactive. For 9130019P16Rik #2, the entry reads GFP, % of control 61; viability (ATP), % of control 51.8; inactive. Depletion of 9130019P16Rik #3 came out at: GFP, % of control 41; viability (ATP), % of control 55.8; inactive.

Maf1 #1 showed GFP, % of control 71.3; viability (ATP), % of control 35.8; inactive. For Maf1 #2 the deposit lists GFP, % of control 186; viability (ATP), % of control 91; active. Knock-down of Maf1 #3 resulted in: GFP, % of control 88.1; viability (ATP), % of control 82.1; inactive. Silencing of Mkrn2 #1 resulted in: GFP, % of control 73.7; viability (ATP), % of control 89.9; inactive. Depletion of Mkrn2 #2 gave: GFP, % of control 80.4; viability (ATP), % of control 80.8; inactive. After knock-down of Mkrn2 #3, the record shows GFP, % of control 38.4; viability (ATP), % of control 55.1; inactive.

With knock-down of Rfc4 #1, the screen gave GFP, % of control 106; viability (ATP), % of control 119; inactive. Depletion of Rfc4 #2 gave: GFP, % of control 117; viability (ATP), % of control 97.9; inactive. Against Dab2 #1, the entry reads GFP, % of control 104; viability (ATP), % of control 71.3; inactive. After knock-down of Dab2 #2, the screen gave GFP, % of control 195; viability (ATP), % of control 59.9; active. Dab2 #3 scored GFP, % of control 103; viability (ATP), % of control 95; inactive. Knock-down of Dab2 #4 came out at: GFP, % of control 98.1; viability (ATP), % of control 85.6; inactive.

Against Dab2 #5, the entry reads GFP, % of control 88; viability (ATP), % of control 83.5; inactive. Against Prmt6 #1 the deposit lists GFP, % of control 102; viability (ATP), % of control 79.4; inactive. Against Prmt6 #2, the entry reads GFP, % of control 84.7; viability (ATP), % of control 105; inactive. Against Prmt6 #3, the entry reads GFP, % of control 118; viability (ATP), % of control 99.2; inactive. Depletion of Pik3r1 #1 came out at: GFP, % of control 108; viability (ATP), % of control 66.5; inactive. For Pik3r1 #2, the values are GFP, % of control 74.5; viability (ATP), % of control 75.8; inactive.

With knock-down of Pik3r1 #3 the results were GFP, % of control 82.2; viability (ATP), % of control 88.3; inactive. Depletion of Mpz #1 came out at: GFP, % of control 54; viability (ATP), % of control 83.9; inactive. Silencing of Mpz #2 came out at: GFP, % of control 62.5; viability (ATP), % of control 60.1; inactive. Depletion of Peak1 #1 resulted in: GFP, % of control 111; viability (ATP), % of control 69.1; inactive. Depletion of Peak1 #2 came out at: GFP, % of control 77.8; viability (ATP), % of control 92.8; inactive. Depletion of Peak1 #3 gave: GFP, % of control 49.8; viability (ATP), % of control 66.7; inactive.

Against Vmn1r235 #1 the deposit lists GFP, % of control 103; viability (ATP), % of control 69.1; inactive. With knock-down of Vmn1r235 #2 the results were GFP, % of control 95.7; viability (ATP), % of control 95.2; inactive. Knock-down of Vmn1r235 #3 came out at: GFP, % of control 37.4; viability (ATP), % of control 48.7; inactive. For Ptcra #1, the values are GFP, % of control 56.7; viability (ATP), % of control 55.2; inactive. After knock-down of Ptcra #2 the results were GFP, % of control 77.2; viability (ATP), % of control 80; inactive. After knock-down of Ptcra #3, the screen gave GFP, % of control 59.1; viability (ATP), % of control 57.9; inactive.

Against Cct5 #1 the deposit lists GFP, % of control 60.3; viability (ATP), % of control 107; inactive. Knock-down of Cct5 #2 came out at: GFP, % of control 69.9; viability (ATP), % of control 41.5; inactive. Cct5 #3 showed GFP, % of control 93.1; viability (ATP), % of control 102; inactive. Slc16a7 #1 gave GFP, % of control 71.2; viability (ATP), % of control 73.1; inactive. With knock-down of Slc16a7 #2 the results were GFP, % of control 84.4; viability (ATP), % of control 86.9; inactive. Against Slc16a7 #3 the deposit lists GFP, % of control 98.4; viability (ATP), % of control 85.4; inactive.

With knock-down of Atf2 #1, the record shows GFP, % of control 48.6; viability (ATP), % of control 56.6; inactive. For Atf2 #2 the deposit lists GFP, % of control 71.9; viability (ATP), % of control 79.3; inactive. Knock-down of Myo19 #1 resulted in: GFP, % of control 42.3; viability (ATP), % of control 61.3; inactive. With knock-down of Myo19 #2 the results were GFP, % of control 44.9; viability (ATP), % of control 53.7; inactive. Myo19 #3 showed GFP, % of control 83.6; viability (ATP), % of control 69; inactive. Silencing of Ddx5 #1 resulted in: GFP, % of control 87.6; viability (ATP), % of control 57.8; inactive.

Knock-down of Ddx5 #2 came out at: GFP, % of control 70.2; viability (ATP), % of control 63.9; inactive. Silencing of Ddx5 #3 resulted in: GFP, % of control 187; viability (ATP), % of control 141; active. Tbc1d4 #1 showed GFP, % of control 83.2; viability (ATP), % of control 79.1; inactive. With knock-down of Tbc1d4 #2 the results were GFP, % of control 59.3; viability (ATP), % of control 33; inactive. Knock-down of Tbc1d4 #3 came out at: GFP, % of control 64.1; viability (ATP), % of control 55.7; inactive.

Records listed so far whose gene name begins with A or a (2):
Atf2 #1 → GFP, % of control: 48.6; viability (ATP), % of control: 56.6; Call: inactive
Atf2 #2 → GFP, % of control: 71.9; viability (ATP), % of control: 79.3; Call: inactive
